≈ marks a conversion by molar mass, not a printed value. The list shows a part of the results. These are further read-outs of the screen, such as a control signal, another cell line or another target. No call is given for them.

The nature of the assay: Mycobacterium tuberculosis H37Rv growth inhibition, confirmatory dose response, cytotoxicity (AID 1332).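 On CC50: Vero cells exposed to compounds for 72 hours.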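 On IC50: bacteria incubated 7 days before adding Alamar blue readout reagent.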 As to conditions: M. tuberculosis H37Rv growth inhibition; CC50: measured here: Vero cell cytotoxicity; IC50: measured here: IC50 H37Rv replicates.
In general, IC50 refers to the concentration at which inhibition is half-maximal. A lower IC50 goes with inhibition by little substance. As for `CCN1CCN(C(=O)N[C@@H](C(=O)N[C@@H]2C(=O)N3[C@@H]2SC(C)(C)[C@@H]3C(=O)O)c2ccccc2)C(=O)C1=O`, the half-inhibitory concentration (IC50) was above 20 µg/mL.

Take `CN(C)C(=N)N=C(N)N`: the IC50 was above 20 µg/mL.

As for `C[C@]12N[C@H](Cc3ccccc31)c1ccccc12`, the 50% inhibitory concentration (IC50) was above 20 µg/mL.

Consider `O[C@@H]1CCCC[C@H]1N1CCC(c2ccccc2)CC1`, for which the IC50 is above 20 µg/mL.

On to `COc1ccc(NS(=O)(=O)c2ccc(N)cc2)nn1`, for which the IC50 is above 20 µg/mL.

As to `Nc1ccc(C(=O)NCC(=O)O)cc1`, the IC50 is above 20 µg/mL.

In turn, `OC[C@H]1O[C@@H](Oc2ccc(O)cc2)[C@H](O)[C@@H](O)[C@@H]1O` returned an IC50 above 20 µg/mL.

As a reminder, the CC50 is the concentration at which the toxic effect on the cells reaches its halfway point. Read a low CC50 as greater toxicity to the cells. Take `OCCN1CCN(CCCN2c3ccccc3Sc3ccc(Cl)cc32)CC1`: the CC50 was above 6 µg/mL and the 50% inhibitory concentration (IC50) turned out to be 6.29 µg/mL (≈ 15.6 µM).

For the molecule `C#CCN(C)Cc1ccccc1`, the IC50 was above 20 µg/mL.

Regarding `COc1ccc2cc(CCC(C)=O)ccc2c1`, the IC50 was above 20 µg/mL.

Regarding `CCn1cc(C(=O)O)c(=O)c2ccc(C)nc21`, the IC50 is above 19.4 µg/mL.

Take `CC1=C2[C@H]3OC(=O)[C@@H](C)[C@@H]3CC[C@@]2(C)C=CC1=O`: the IC50 was above 20 µg/mL.

Consider `CCN(CC)CCNC(=O)c1cc(S(C)(=O)=O)ccc1OC`, for which the IC50 was above 20 µg/mL.

For `O=C(CCCN1CC=C(n2c(=O)[nH]c3ccccc32)CC1)c1ccc(F)cc1`, the IC50 is above 20 µg/mL.

With `CN/C(=C/[N+](=O)[O-])NCCSCc1ccc(CN(C)C)o1`, the IC50 is above 20 µg/mL.

With `COc1cc2nc(N3CCN(C(=O)c4ccco4)CC3)nc(N)c2cc1OC`, the CC50 stood at 3.95 µg/mL (≈ 10.3 µM) and the concentration for half-maximal inhibition (IC50) is above 20 µg/mL.

`CCn1cc(C(=O)O)c(=O)c2cnc(N3CCNCC3)nc21` displayed a half-inhibitory concentration (IC50) above 20 µg/mL.

In the case of `COc1nc(C)nc(Cl)c1NC1=NCCN1`, the half-inhibitory concentration (IC50) was above 20 µg/mL.

Regarding `Cc1ccc(S(=O)(=O)NC(=O)NN2CC3CCCC3C2)cc1` (stereo not drawn), the IC50 is above 20 µg/mL.

In the case of `COc1ccc(-c2cc(=O)c3c(O)cc(O)cc3o2)cc1`, the concentration for half-maximal inhibition (IC50) is above 20 µg/mL.

Molecule `O=c1c(O)c(-c2cc(O)c(O)c(O)c2)oc2cc(O)cc(O)c12` gave an IC50 above 20 µg/mL.

`C[C@H]1CC[C@@H]2[C@@H](C)[C@H]3[C@H](C[C@H]4[C@@H]5CC=C6C[C@@H](O[C@@H]7O[C@H](CO)[C@H](O)[C@H](O[C@@H]8O[C@H](CO)[C@@H](O)[C@H](O)[C@H]8O)[C@H]7O[C@@H]7O[C@@H](C)[C@H](O)[C@@H](O)[C@H]7O)CC[C@]6(C)[C@H]5CC[C@]34C)N2C1` gave a concentration for half-maximal inhibition (IC50) above 20 µg/mL.

With `COc1ccc(C(=O)NCc2cccnc2)cc1C(=O)NCc1cccnc1`, the half-maximal inhibitory concentration (IC50) was above 20 µg/mL.

`CN1C[C@H](CO)C=C2c3cccc4[nH]cc(c34)C[C@H]21`: the IC50 is above 20 µg/mL.

`COc1ccc2[nH]cc(CCNC(C)=O)c2c1` registered a half-maximal inhibitory concentration (IC50) above 20 µg/mL.

The molecule `O=C(NCCNCC(O)COc1ccc(O)cc1)N1CCOCC1` (stereo not drawn) came in with an IC50 above 20 µg/mL.

Take `CCN(Cc1ccncc1)C(=O)C(CO)c1ccccc1` (stereo not drawn): the IC50 was above 20 µg/mL.

Turning to `COc1ccc(CCN2CCC(Nc3nc4ccccc4n3Cc3ccc(F)cc3)CC2)cc1`, the cytotoxic concentration (CC50) came to 4.36 µg/mL (≈ 9.51 µM) and the IC50 came to 4.48 µg/mL (≈ 9.76 µM).

Molecule `CCN(CC)CC#CCOC(=O)C(O)(c1ccccc1)C1CCCCC1` (stereo not drawn) registered a half-maximal inhibitory concentration (IC50) above 20 µg/mL.

On to `Cc1ncc([N+](=O)[O-])n1CCO`, for which the IC50 was above 20 µg/mL.

For the molecule `Fc1ccc(C(OCCN2CCN(CCCc3ccccc3)CC2)c2ccc(F)cc2)cc1`, the CC50 came to 5.09 µg/mL (≈ 11.3 µM) and the IC50 turned out to be 3.04 µg/mL (≈ 6.74 µM).

`CC(C)(C)NCC(O)c1cc(Cl)c(N)c(Cl)c1` (stereo not drawn): the IC50 is above 20 µg/mL.

On to `CC(C)NCC(O)COc1ccc(COCCOC(C)C)cc1` (stereo not drawn), for which the half-inhibitory concentration (IC50) was above 20 µg/mL.

Molecule `COC(=O)C1=CCCN(C)C1` showed an IC50 above 20 µg/mL.

`Nc1nc(=S)c2ncn([C@@H]3O[C@H](CO)[C@@H](O)[C@H]3O)c2[nH]1` registered a CC50 of 0.41 µg/mL (≈ 1.37 µM) and a half-inhibitory concentration (IC50) of 2.62 µg/mL (≈ 8.75 µM).

Consider `Cc1c(OCC(F)(F)F)ccnc1CS(=O)c1nc2ccccc2[nH]1` (stereo not drawn), for which the half-inhibitory concentration (IC50) worked out at 4.47 µg/mL (≈ 12.1 µM).

The molecule `CC(=O)N[C@@H](CC(C)C)C(=O)O` had an IC50 above 20 µg/mL.

On to `CN(C)CCN(Cc1cccs1)c1ccccn1`, for which the IC50 is above 20 µg/mL.

Molecule `Clc1ccc(C(Cn2ccnc2)OCc2c(Cl)cccc2Cl)c(Cl)c1` (stereo not drawn) came in with an IC50 of 1.54 µg/mL (≈ 3.71 µM).

In turn, `NC(=O)N1c2ccccc2C=Cc2ccccc21` came in with a half-inhibitory concentration (IC50) above 20 µg/mL.

As for `NCCC(=O)NCCc1cnc[nH]1`, the IC50 is above 20 µg/mL.

`O=c1cc(-c2ccc(O)cc2)oc2cc(O)cc(O)c12` had a CC50 above 6 µg/mL and an IC50 above 20 µg/mL.

In the case of `O=C(Cn1ccnc1[N+](=O)[O-])NCCO`, the IC50 was above 20 µg/mL.

Molecule `c1ccc(C2CN3CCSC3=N2)cc1` (stereo not drawn) displayed an IC50 above 20 µg/mL.

Molecule `COc1cc2cc3c4cc(OC)c(OC)cc4cc[n+]3c(C)c2cc1OC` came in with a half-maximal inhibitory concentration (IC50) of 0.97 µg/mL.

With `COc1ccc(Cc2nccc3cc(OC)c(OC)cc23)cc1OC`, the CC50 is above 6 µg/mL and the 50% inhibitory concentration (IC50) was above 20 µg/mL.

Consider `Cc1scc2c1N(C(=O)CN1CCN(C)CC1)c1ccccc1NC2=O`, for which the IC50 was above 20 µg/mL.

Turning to `CCCNC(C)C(=O)Nc1ccccc1C` (stereo not drawn), the half-maximal inhibitory concentration (IC50) is above 20 µg/mL.

`COc1ccc(CN(CCN(C)C)c2ccccn2)cc1`: the IC50 was above 20 µg/mL.

As for `CC(COc1ccccc1)N(CCCl)Cc1ccccc1` (stereo not drawn), the IC50 was above 10 µg/mL.

Consider `CC(=O)c1ccc(S(=O)(=O)NC(=O)NC2CCCCC2)cc1`, for which the 50% inhibitory concentration (IC50) was above 20 µg/mL.
